Data: publication PMC3320541

Target: HopZ2^C229A (Pseudomonas syringae)
Assay: two-hybrid; split-ubiquitin yeast two-hybrid screen (QIS-Seq): membrane-tethered LexA-VP16-Cub bait against the NubG Arabidopsis cDNA prey library in AP-4 yeast; interacting colonies by growth on SD-LeuTrpHis + 3-AT; prey inserts of ~2000 pooled colonies sequenced (Illumina); enrichment against luciferase bait and library

B1: Arabidopsis thaliana MLO2 (At1g11310), partial clone of the cDNA prey library (domain or fragment, UniProt Q9SXB6 281-573)
chain: QRSLEKDFKTVVEISPVIWFVAVLFLLTNSYGLRSYLWLPFIPLVVILIVGTKLEVIITKLGLRIQEKGDVVRGAPVVQPGDDLFWFGKPRFILFLIHLVLFTNAFQLAFFAWSTYEFNLNNCFHESTADVVIRLVVGAVVQILCSYVTLPLYALVTQMGSKMKPTVFNDRVATALKKWHHTAKNETKHGRHSGSNTPFSSRPTTPTHGSSPIHLLHNFNNRSVENYPSSPSPRYSGHGHHEHQFWDPESQHQEAETSTHHSLAHESSEPVLASVELPPIRTSKSLRDFSFKK
In the case of B1, the binding is reported as “binds”.

These are yes or no findings as the source states them, for the method shown. Binding can be weak; no strength is given.
